Measurements as given in article PMC2791442.
Results are given in words; binding and its absence hold for the method and conditions named. Some entries that bind do so weakly or less than the wild type.

By UniProt entry, the sequences of proteins in these tests, tags left out. Where a name states a change or a piece, a line headed by the entry shows the natural chain unless it says otherwise.
UniProt Q46865: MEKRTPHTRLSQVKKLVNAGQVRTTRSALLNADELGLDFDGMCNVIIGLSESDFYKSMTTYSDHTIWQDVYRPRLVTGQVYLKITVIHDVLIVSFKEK
UniProt Q46864: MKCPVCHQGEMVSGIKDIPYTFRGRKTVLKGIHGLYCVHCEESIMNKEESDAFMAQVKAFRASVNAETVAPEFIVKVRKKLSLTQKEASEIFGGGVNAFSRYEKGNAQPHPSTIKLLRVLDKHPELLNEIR

Legend:
[1] = molecular target: MqsR (his-tagged), co-expressed with full-length MqsA (E. coli) (UniProt Q46865); test: co-purification by the his-tag; MqsR his-tagged, MqsA-F untagged, co-expressed
[2] = molecular target: MqsR, his6-tag cleaved, co-expressed with MqsA-N (E. coli) (UniProt Q46865); test: crystal structure; MqsR:MqsA-N complex, 2.0 Å, MAD; sitting drop at 4°C, 0.1 M Bis-Tris pH 5.5, 25% PEG3350; two complexes in the asymmetric unit; both purified

Row | binding [1] | binding [2] | Substance
1 | binds |  | Full-length MqsA (MqsA-F), untagged, co-expressed with MqsR (from UniProt Q46864 1-131)
2 |  | binds | MqsA N-terminal domain (MqsA-N), untagged, co-expressed with MqsR (from UniProt Q46864 1-76) (domain or fragment)
